Values quoted from earlier work, collected in patent publication US20150125921A1 (priority 2012, published 2015).
For at least one compound, name, drawing or mass did not settle the structure.

System: anaerobic digestion of pig and cow manure

## CN(C)[C@@H]1C(O)=C(C(N)=O)C(=O)[C@@]2(O)C(O)=C3C(=O)c4c(O)cccc4[C@@](C)(O)[C@H]3[C@H](O)[C@@H]12 [OTC, oxytetracycline]
  inhibitory effect on biogas production: essentially no inhibitory effect
  reduction in methane production: 27%
